These are yes or no findings as the source states them, for the method shown. A result given as binding can be weak or reduced; the word gives no strength. Sequences can lack the tags named with a protein.
Molecular target: Syk-GFP fusion protein
Assay: co-localization in transiently transfected 293T cells, confocal microscopy

B1: dsRed.KRPPYVLL fusion protein (peptide)
chain: KRPPYVLL
In the case of B1, the binding is reported as “binds”.

Source: patent US20070110760A1
